Results published in US9834771.

Chains of the proteins cited; added tags and fusions are not shown. Chains listed by the source or under a name are the forms on record and can include a tag or linker. Residues count along the entry.
UniProt P12956, 2-609: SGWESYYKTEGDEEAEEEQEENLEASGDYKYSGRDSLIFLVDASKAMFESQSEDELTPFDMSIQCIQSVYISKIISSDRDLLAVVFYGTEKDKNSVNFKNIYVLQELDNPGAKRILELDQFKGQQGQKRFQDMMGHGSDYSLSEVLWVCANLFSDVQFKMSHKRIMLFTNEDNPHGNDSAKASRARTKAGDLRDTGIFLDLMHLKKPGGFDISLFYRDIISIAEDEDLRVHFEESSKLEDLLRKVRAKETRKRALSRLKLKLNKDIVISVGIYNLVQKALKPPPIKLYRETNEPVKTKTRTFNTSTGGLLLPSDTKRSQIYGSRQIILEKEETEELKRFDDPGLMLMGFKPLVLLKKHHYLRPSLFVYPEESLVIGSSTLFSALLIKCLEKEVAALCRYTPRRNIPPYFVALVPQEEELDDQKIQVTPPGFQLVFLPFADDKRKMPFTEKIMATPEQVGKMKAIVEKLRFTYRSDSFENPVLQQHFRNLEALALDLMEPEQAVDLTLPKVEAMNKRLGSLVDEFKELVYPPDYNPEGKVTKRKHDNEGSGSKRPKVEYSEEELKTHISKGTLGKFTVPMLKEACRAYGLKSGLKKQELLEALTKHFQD
Ku70/Ku80 heterodimer (Homo sapiens), one chain, as listed by the source, chain 1 of 2: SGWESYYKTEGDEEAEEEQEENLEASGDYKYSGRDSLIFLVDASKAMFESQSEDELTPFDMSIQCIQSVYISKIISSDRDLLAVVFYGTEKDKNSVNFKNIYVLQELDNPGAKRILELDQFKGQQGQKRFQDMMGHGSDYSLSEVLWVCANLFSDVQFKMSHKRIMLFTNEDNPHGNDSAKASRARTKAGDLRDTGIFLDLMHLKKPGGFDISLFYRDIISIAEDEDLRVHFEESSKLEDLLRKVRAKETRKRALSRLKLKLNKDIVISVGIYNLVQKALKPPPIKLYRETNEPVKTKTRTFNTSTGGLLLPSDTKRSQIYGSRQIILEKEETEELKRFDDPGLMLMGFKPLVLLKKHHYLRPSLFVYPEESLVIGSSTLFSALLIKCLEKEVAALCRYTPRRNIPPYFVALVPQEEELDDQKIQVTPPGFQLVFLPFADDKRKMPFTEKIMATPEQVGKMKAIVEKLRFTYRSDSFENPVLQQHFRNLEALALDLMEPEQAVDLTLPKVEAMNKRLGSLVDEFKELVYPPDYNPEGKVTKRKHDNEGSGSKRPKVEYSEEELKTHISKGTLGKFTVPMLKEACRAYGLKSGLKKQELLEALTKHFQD
Ku70/Ku80 heterodimer (Homo sapiens), one chain, as listed by the source, chain 2 of 2: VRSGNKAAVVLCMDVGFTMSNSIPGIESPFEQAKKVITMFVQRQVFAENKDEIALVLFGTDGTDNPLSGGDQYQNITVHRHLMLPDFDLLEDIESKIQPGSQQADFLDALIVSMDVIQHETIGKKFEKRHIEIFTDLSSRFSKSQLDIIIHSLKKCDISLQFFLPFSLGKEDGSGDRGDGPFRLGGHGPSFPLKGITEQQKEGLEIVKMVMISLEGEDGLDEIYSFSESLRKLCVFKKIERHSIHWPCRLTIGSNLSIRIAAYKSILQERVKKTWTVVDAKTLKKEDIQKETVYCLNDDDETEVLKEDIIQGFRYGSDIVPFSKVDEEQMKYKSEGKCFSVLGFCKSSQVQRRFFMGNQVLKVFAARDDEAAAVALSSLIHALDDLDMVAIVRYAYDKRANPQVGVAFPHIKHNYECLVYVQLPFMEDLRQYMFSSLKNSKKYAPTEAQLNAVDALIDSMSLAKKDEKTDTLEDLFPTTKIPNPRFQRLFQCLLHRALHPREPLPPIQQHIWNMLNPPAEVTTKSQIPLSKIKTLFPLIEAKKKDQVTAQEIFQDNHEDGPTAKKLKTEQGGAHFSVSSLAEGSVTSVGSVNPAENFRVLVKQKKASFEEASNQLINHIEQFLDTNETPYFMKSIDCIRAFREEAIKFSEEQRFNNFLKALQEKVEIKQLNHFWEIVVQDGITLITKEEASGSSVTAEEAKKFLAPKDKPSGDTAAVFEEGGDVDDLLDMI

Experiments:
[1] = biological target: Ku70 (XRCC6), Ku heterodimer subunit (Homo sapiens) (UniProt P12956); experiment: pull-down; settings: protein in an extract, label: Cy3 or biotin
[2] = test system: Ku70/Ku80 heterodimer (Homo sapiens); experiment: pull-down; settings: aptamer precipitation and mass spectrometry, U87MG and 1321N1 lysates; protein in an extract; label: Cy3 or biotin

Sequence	binding result ([1]; aptamer precipitation from U87 lysate, Western blot for Ku70)	binding result [2]	binding result ([1]; SA44 used as control, no Ku70 detected)
ACGUUACUCUUGCAACACAAACUUUAAUAGCCUCUUAUAGUUC [SA43 (GL43)]	binds	binds	
ACGUUACUCUUGCAACACCCAAACUUUAAUAGCCUCUUAUAGUUC [SA44 (GL44)]			no binding

Construct, isoform or probe ends are uncertain for at least one entry. At least one result comes from cells or an extract, where the contact may be indirect. For part of these data: No signal at the amounts used counts as a negative.
